These are yes or no findings as the source states them, for the method shown. In cells and extracts the contact can be indirect. Some entries that bind do so weakly or less than the wild type.
Legend:
[1] = target: T1, Period2 (PER2), endogenous (human (endogenous in U2OS)) (UniProt O15055); assay: proximity ligation
T1 sequence: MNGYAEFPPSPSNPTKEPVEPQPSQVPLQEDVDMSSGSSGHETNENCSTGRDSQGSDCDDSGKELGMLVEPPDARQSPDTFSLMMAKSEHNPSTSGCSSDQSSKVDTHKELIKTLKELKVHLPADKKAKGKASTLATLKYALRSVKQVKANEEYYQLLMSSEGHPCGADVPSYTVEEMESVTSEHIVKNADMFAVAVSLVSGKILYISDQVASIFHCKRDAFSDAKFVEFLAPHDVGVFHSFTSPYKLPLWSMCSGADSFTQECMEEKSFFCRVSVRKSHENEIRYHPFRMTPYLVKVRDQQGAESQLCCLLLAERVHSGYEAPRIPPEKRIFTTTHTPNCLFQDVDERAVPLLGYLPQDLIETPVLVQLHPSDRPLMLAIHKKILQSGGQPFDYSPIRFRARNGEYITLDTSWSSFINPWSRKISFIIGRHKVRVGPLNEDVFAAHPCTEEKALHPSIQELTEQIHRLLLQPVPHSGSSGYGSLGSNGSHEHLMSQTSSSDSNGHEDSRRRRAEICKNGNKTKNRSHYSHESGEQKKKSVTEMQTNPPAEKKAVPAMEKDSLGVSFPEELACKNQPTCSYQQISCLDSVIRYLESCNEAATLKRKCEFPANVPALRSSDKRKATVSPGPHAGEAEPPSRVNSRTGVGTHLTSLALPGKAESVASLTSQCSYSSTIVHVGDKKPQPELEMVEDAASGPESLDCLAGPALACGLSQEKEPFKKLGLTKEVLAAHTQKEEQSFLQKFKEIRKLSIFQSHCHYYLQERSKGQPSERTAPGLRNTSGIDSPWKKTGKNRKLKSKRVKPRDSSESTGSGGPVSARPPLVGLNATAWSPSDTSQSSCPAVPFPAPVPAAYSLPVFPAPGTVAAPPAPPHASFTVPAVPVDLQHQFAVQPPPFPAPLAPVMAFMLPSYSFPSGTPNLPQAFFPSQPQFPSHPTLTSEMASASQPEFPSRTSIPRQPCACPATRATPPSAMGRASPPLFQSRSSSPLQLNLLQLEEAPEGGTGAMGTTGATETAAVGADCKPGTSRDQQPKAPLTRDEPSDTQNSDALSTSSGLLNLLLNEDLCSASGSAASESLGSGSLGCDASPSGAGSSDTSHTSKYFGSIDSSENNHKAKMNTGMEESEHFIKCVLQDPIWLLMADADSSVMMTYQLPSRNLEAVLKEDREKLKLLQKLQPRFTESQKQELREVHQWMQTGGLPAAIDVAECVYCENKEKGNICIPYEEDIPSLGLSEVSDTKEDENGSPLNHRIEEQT

Protein sequences, listed by entry. Tags and fused reporters are not part of them. Residues count along the entry.
UniProt P63165, residues 1-97: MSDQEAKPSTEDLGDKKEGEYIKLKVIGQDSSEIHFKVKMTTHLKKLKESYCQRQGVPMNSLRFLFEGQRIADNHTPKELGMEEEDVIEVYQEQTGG
UniProt Q00987: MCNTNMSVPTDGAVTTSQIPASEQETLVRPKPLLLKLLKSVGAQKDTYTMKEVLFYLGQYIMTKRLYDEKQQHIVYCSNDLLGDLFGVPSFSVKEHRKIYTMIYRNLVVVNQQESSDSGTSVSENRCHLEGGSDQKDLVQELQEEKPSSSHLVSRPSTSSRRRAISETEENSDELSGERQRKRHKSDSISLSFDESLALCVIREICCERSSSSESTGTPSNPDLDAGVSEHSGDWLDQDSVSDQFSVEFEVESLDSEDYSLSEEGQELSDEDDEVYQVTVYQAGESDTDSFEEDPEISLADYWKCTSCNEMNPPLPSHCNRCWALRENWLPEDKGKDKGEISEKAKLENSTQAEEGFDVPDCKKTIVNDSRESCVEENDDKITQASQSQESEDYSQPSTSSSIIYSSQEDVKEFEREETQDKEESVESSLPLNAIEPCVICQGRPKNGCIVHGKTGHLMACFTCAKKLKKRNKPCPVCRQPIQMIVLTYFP

[2] = target: T1, Period2 (PER2), endogenous (human (endogenous in U2OS)); assay: co-IP

| binding [1] | Substance | binding [2] |
| --- | --- | --- |
| binds | SUMO1, endogenous (from UniProt P63165 1-97) | – |
| – | MDM2, endogenous (from UniProt Q00987 1-491) | binds |

Reference: paper doi:10.1101/789222
